Results taken from US7432051B2, “Erythropoietin and erythropoietin receptor expression in human cancer” (The Henry M. Jackson Foundation for the Advancement of …, priority 2000, dated 2008).
At least one compound was matched to its structure with a doubt left.

Test system: U251 cells
Assay: Serum withdrawal cell survival
Assay type: cell-based, human
Conditions: inhibitor added at change to serum-free media, forty-eight hours

SMILES	effect on the protective effect of Epoetin-alfa
O=c1cc(N2CCOCC2)oc2c(-c3ccccc3)cccc12 [LY294002]	blocked
COC[C@H]1OC(=O)c2coc3c2[C@@]1(C)C1=C(C3=O)[C@@H]2CCC(=O)[C@@]2(C)C[C@H]1OC(C)=O [Wortmannin]	blocked
